Source: paper PMC10578914
Results are given in words; binding and its absence hold for the method and conditions named. In cells and extracts the contact can be indirect. Some binding calls cover weakened binding; strength is not graded here. Sequences can lack the tags named with a protein.

T1: ECSIT N209I, 6xHis-tagged (mouse) (UniProt Q9QZH6)
T1 sequence: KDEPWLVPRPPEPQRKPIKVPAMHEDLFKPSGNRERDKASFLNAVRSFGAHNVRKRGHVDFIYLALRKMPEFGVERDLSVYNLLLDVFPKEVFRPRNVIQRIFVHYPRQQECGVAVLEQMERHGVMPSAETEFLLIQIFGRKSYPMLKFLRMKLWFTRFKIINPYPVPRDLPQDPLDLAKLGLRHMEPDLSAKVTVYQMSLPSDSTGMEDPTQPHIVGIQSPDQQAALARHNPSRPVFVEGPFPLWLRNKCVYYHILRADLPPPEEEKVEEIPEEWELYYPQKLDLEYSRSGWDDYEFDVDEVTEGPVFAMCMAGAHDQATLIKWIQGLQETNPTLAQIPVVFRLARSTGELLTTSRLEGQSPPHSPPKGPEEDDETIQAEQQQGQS

T2: ECSIT (evolutionarily conserved signalling intermediate in the toll pathway), wild type, 6xHis-tagged (mouse) (UniProt Q9QZH6)
T2 sequence: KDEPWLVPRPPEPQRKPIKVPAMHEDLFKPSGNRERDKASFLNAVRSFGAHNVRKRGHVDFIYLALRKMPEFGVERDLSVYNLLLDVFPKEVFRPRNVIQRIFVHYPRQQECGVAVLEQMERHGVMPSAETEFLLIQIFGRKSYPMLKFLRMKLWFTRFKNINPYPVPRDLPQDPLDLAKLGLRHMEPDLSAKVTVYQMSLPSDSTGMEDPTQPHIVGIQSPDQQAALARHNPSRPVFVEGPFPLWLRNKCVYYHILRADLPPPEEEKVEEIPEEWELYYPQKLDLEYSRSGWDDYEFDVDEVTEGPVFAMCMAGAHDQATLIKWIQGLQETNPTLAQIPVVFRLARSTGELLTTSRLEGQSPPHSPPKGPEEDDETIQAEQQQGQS

T3: NDUFAF1, wild type, Myc-tagged (mouse) (UniProt Q9CWX2)
T3 sequence: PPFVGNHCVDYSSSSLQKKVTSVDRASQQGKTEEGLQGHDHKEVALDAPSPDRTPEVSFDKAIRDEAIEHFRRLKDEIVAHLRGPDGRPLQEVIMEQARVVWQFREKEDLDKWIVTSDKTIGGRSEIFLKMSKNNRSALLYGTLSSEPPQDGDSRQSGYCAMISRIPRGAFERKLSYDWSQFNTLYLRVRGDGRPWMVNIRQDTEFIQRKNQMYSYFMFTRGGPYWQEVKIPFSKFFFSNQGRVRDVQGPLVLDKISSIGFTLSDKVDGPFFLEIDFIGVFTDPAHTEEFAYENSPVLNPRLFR

T4: ACAD9, wild type, Myc-tagged (UniProt Q8JZN5)
T4 sequence: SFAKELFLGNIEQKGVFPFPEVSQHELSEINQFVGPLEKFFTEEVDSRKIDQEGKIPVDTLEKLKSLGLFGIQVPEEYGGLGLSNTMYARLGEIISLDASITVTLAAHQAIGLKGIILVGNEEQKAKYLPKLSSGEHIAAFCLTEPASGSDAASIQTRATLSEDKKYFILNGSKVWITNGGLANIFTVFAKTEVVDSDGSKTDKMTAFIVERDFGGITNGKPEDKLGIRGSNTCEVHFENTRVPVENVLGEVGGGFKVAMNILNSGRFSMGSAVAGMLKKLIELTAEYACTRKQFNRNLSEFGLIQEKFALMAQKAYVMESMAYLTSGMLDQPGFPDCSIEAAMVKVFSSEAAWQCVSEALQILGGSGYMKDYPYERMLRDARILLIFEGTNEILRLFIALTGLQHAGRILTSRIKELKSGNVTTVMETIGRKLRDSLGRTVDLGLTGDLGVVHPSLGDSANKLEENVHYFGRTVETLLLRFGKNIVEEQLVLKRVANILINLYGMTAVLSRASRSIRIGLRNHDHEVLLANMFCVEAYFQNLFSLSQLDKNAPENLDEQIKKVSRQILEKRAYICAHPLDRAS


Assays:
Test in all cases: co-IP; HEK293T cells co-transfected, lysed 48 h later in RIPA buffer (150 mM NaCl, 1% NP-40, 0.5% DOC, 0.1% SDS, 50 mM Tris, pH 7.5); 1 mg/mL lysate pre-cleared, 4 ug anti-His or anti-Myc antibody overnight, protein G sepharose, three washes in RIPA; western blot for His and Myc
[1] = target: T1, ECSIT N209I, 6xHis-tagged (mouse)
[2] = target: T2, ECSIT (evolutionarily conserved signalling intermediate in the toll pathway), wild type, 6xHis-tagged (mouse)
[3] = target: T3, NDUFAF1, wild type, Myc-tagged (mouse)
[4] = target: T4, ACAD9, wild type, Myc-tagged

Binder	binding [1]	binding [2]	binding [3]	binding [4]
ECSIT (evolutionarily conserved signalling intermediate in the toll pathway), wild type, 6xHis-tagged (protein, UniProt Q9QZH6 49-435) KDEPWLVPRPPEPQRKPIKVPAMHEDLFKPSGNRERDKASFLNAVRSFGAHNVRKRGHVDFIYLALRKMPEFGVERDLSVYNLLLDVFPKEVFRPRNVIQRIFVHYPRQQECGVAVLEQMERHGVMPSAETEFLLIQIFGRKSYPMLKFLRMKLWFTRFKNINPYPVPRDLPQDPLDLAKLGLRHMEPDLSAKVTVYQMSLPSDSTGMEDPTQPHIVGIQSPDQQAALARHNPSRPVFVEGPFPLWLRNKCVYYHILRADLPPPEEEKVEEIPEEWELYYPQKLDLEYSRSGWDDYEFDVDEVTEGPVFAMCMAGAHDQATLIKWIQGLQETNPTLAQIPVVFRLARSTGELLTTSRLEGQSPPHSPPKGPEEDDETIQAEQQQGQS			binds	binds
ECSIT N209I, 6xHis-tagged (protein, UniProt Q9QZH6 49-435) KDEPWLVPRPPEPQRKPIKVPAMHEDLFKPSGNRERDKASFLNAVRSFGAHNVRKRGHVDFIYLALRKMPEFGVERDLSVYNLLLDVFPKEVFRPRNVIQRIFVHYPRQQECGVAVLEQMERHGVMPSAETEFLLIQIFGRKSYPMLKFLRMKLWFTRFKIINPYPVPRDLPQDPLDLAKLGLRHMEPDLSAKVTVYQMSLPSDSTGMEDPTQPHIVGIQSPDQQAALARHNPSRPVFVEGPFPLWLRNKCVYYHILRADLPPPEEEKVEEIPEEWELYYPQKLDLEYSRSGWDDYEFDVDEVTEGPVFAMCMAGAHDQATLIKWIQGLQETNPTLAQIPVVFRLARSTGELLTTSRLEGQSPPHSPPKGPEEDDETIQAEQQQGQS			binds	binds
ACAD9, wild type, Myc-tagged (protein, UniProt Q8JZN5 42-625) SFAKELFLGNIEQKGVFPFPEVSQHELSEINQFVGPLEKFFTEEVDSRKIDQEGKIPVDTLEKLKSLGLFGIQVPEEYGGLGLSNTMYARLGEIISLDASITVTLAAHQAIGLKGIILVGNEEQKAKYLPKLSSGEHIAAFCLTEPASGSDAASIQTRATLSEDKKYFILNGSKVWITNGGLANIFTVFAKTEVVDSDGSKTDKMTAFIVERDFGGITNGKPEDKLGIRGSNTCEVHFENTRVPVENVLGEVGGGFKVAMNILNSGRFSMGSAVAGMLKKLIELTAEYACTRKQFNRNLSEFGLIQEKFALMAQKAYVMESMAYLTSGMLDQPGFPDCSIEAAMVKVFSSEAAWQCVSEALQILGGSGYMKDYPYERMLRDARILLIFEGTNEILRLFIALTGLQHAGRILTSRIKELKSGNVTTVMETIGRKLRDSLGRTVDLGLTGDLGVVHPSLGDSANKLEENVHYFGRTVETLLLRFGKNIVEEQLVLKRVANILINLYGMTAVLSRASRSIRIGLRNHDHEVLLANMFCVEAYFQNLFSLSQLDKNAPENLDEQIKKVSRQILEKRAYICAHPLDRAS	binds	binds		

Further lines, results first:

binding [1]	binding [2]	binding [3]	binding [4]	Binder
binds	binds			TRAF6 (tumour necrosis factor receptor-associated factor 6), wild type, Myc-tagged (protein, UniProt P70196 1-530) MSLLNCENSCGSSQSSSDCCAAMAASCSAAVKDDSVSGSASTGNLSSSFMEEIQGYDVEFDPPLESKYECPICLMALREAVQTPCGHRFCKACIIKSIRDAGHKCPVDNEILLENQLFPDNFAKREILSLTVKCPNKGCLQKMELRHLEDHQVHCEFALVNCPQCQRPFQKCQVNTHIIEDCPRRQVSCVNCAVSMAYEEKEIHDQSCPLANIICEYCGTILIREQMPNHYDLDCPTAPIPCTFSVFGCHEKMQRNHLARHLQENTQLHMRLLAQAVHNVNLALRPCDAASPSRGCRPEDPNYEETIKQLESRLVRQDHQIRELTAKMETQSMYVGELKRTIRTLEDKVAEMEAQQCNGIYIWKIGNFGMHLKSQEEERPVVIHSPGFYTGRPGYKLCMRLHLQLPTAQRCANYISLFVHTMQGEYDSHLPWPFQGTIRLTILDQSEALIRQNHEEVMDAKPELLAFQRPTIPRNPKGFGYVTFMHLEALRQGTFIKDDTLLVRCEVSTRFDMGGLRKEGFQPRSTDAGV
	binds			NDUFAF1, wild type, Myc-tagged (protein, UniProt Q9CWX2 25-328) PPFVGNHCVDYSSSSLQKKVTSVDRASQQGKTEEGLQGHDHKEVALDAPSPDRTPEVSFDKAIRDEAIEHFRRLKDEIVAHLRGPDGRPLQEVIMEQARVVWQFREKEDLDKWIVTSDKTIGGRSEIFLKMSKNNRSALLYGTLSSEPPQDGDSRQSGYCAMISRIPRGAFERKLSYDWSQFNTLYLRVRGDGRPWMVNIRQDTEFIQRKNQMYSYFMFTRGGPYWQEVKIPFSKFFFSNQGRVRDVQGPLVLDKISSIGFTLSDKVDGPFFLEIDFIGVFTDPAHTEEFAYENSPVLNPRLFR
